# Measured values from publication PMC7862700.
# Only a part is listed here, and it is no random draw. For part of these data: At the low end of the ranking the order means little. The list shows a part of the results. For part of these data: The source does not settle which construct or isoform was used.
# How the values were obtained:
# Test in all cases: DAPPL (digital affinity profiling via proximity ligation, sequencing)
# Settings in all cases: 10 mM Tris-HCl pH 7.5, 50 mM NaCl, 1 mM DTT, 4% glycerol, room temperature, 30 min; GST-TFs on glutathione beads, 16-mer random dsDNA library, 0.1% …; high values mean tight binding; double strand, one strand shown; scale: fold enrichment (6-mer frequency, TF over GST control)
# [1] = biological target: T1, GABPA (UniProt Q06546)
# T1 sequence: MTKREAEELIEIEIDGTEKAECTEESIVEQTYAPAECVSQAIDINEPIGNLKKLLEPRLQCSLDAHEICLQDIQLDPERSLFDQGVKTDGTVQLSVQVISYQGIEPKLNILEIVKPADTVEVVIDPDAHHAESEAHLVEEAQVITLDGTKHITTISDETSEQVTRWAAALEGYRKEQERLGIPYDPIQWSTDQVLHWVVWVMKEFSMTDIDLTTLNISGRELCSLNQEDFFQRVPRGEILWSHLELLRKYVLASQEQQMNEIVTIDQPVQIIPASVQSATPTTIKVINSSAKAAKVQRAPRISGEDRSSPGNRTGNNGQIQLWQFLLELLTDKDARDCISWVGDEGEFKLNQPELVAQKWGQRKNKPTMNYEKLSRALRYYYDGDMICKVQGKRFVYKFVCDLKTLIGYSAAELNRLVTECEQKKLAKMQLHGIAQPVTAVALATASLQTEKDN
# [2] = biological target: T2, ETS1 (UniProt P14921)
# T2 sequence: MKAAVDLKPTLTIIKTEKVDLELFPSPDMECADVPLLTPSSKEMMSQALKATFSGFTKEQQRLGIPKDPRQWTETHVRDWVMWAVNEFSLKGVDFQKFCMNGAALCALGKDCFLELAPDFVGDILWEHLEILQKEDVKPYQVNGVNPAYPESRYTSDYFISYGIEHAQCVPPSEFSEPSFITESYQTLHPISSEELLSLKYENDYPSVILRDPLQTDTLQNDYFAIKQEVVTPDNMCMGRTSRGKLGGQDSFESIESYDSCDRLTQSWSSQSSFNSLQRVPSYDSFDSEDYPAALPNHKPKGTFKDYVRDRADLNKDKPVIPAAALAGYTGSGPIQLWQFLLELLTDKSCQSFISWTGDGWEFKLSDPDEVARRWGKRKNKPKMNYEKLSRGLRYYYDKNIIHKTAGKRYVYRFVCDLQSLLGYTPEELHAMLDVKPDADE
# [3] = biological target: T3, SPDEF (UniProt O95238)
# T3 sequence: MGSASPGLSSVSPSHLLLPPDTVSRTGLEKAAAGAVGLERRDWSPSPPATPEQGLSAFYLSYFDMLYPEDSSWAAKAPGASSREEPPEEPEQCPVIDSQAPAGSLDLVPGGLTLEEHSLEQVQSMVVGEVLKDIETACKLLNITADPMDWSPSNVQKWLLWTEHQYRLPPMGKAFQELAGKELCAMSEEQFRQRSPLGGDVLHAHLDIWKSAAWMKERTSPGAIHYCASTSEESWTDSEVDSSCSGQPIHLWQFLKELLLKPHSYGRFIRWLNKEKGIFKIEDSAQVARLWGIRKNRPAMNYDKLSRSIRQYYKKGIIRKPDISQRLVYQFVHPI
Sequence,binding signal [1],binding signal [2],binding signal [3]
GGAGAA,0.355,0.34,0.307
TGAGCA,0.937,0.852,0.839
TGGGCC,0.915,0.991,0.89
GCAGAG,0.67,0.65,0.64
GATGAG,0.812,0.88,0.795
CACGGG,0.794,0.758,0.728
AGACTG,0.538,0.519,0.484
CCCGAG,0.896,0.783,0.766
GGCGGC,0.551,0.625,0.437
CAGACG,0.532,0.492,0.478
TCAGCG,0.806,0.749,0.69
CATGGA,0.942,0.824,0.825
GTGGAC,0.919,0.935,0.825
GTTGAG,0.614,0.567,0.695
ATGTGA,0.695,0.635,0.692
AAGGAC,0.906,0.854,0.885
CGGGCA,0.687,0.698,0.727

# 7 entries from above, set out differently.
Sequence	binding signal [1]	binding signal [2]	binding signal [3]
CAGACG	0.532	0.492	0.478
TCAGCG	0.806	0.749	0.69
CATGGA	0.942	0.824	0.825
GTGGAC	0.919	0.935	0.825
GTTGAG	0.614	0.567	0.695
ATGTGA	0.695	0.635	0.692
AAGGAC	0.906	0.854	0.885

# The list continues:

Sequence,binding signal [1],binding signal [2],binding signal [3]
CAGGGG,0.565,0.532,0.559
TGAGCC,0.9,0.833,0.738
GGCCGT,0.404,0.405,0.414
ACAGAC,0.842,0.809,0.803
ACCGTG,0.223,0.222,0.231
GTGGGA,0.561,0.514,0.51
AGTGAT,0.95,0.874,0.842
AGTCGC,0.488,0.505,0.485
GGCGCT,0.831,0.695,0.651
GACGAT,0.96,0.989,0.817
GATTGG,0.815,0.913,0.822
AGGGAC,0.744,0.795,0.799
CAGTCG,0.185,0.157,0.173
AGAGTT,0.811,0.723,0.74
GGGGCC,0.606,0.601,0.591
GAGCAA,0.748,0.726,0.729
GAACCG,0.67,0.671,0.83
